Source: PMC2031890
No constants are given. Whether binding was seen depends on the method and setting. Binding seen in cells or lysates may run through a third protein. Some entries that bind do so weakly or less than the wild type. Sequences can lack the tags named with a protein.

The chains behind the UniProt entries cited, without tags or fusion partners.
UniProt Q9NB71: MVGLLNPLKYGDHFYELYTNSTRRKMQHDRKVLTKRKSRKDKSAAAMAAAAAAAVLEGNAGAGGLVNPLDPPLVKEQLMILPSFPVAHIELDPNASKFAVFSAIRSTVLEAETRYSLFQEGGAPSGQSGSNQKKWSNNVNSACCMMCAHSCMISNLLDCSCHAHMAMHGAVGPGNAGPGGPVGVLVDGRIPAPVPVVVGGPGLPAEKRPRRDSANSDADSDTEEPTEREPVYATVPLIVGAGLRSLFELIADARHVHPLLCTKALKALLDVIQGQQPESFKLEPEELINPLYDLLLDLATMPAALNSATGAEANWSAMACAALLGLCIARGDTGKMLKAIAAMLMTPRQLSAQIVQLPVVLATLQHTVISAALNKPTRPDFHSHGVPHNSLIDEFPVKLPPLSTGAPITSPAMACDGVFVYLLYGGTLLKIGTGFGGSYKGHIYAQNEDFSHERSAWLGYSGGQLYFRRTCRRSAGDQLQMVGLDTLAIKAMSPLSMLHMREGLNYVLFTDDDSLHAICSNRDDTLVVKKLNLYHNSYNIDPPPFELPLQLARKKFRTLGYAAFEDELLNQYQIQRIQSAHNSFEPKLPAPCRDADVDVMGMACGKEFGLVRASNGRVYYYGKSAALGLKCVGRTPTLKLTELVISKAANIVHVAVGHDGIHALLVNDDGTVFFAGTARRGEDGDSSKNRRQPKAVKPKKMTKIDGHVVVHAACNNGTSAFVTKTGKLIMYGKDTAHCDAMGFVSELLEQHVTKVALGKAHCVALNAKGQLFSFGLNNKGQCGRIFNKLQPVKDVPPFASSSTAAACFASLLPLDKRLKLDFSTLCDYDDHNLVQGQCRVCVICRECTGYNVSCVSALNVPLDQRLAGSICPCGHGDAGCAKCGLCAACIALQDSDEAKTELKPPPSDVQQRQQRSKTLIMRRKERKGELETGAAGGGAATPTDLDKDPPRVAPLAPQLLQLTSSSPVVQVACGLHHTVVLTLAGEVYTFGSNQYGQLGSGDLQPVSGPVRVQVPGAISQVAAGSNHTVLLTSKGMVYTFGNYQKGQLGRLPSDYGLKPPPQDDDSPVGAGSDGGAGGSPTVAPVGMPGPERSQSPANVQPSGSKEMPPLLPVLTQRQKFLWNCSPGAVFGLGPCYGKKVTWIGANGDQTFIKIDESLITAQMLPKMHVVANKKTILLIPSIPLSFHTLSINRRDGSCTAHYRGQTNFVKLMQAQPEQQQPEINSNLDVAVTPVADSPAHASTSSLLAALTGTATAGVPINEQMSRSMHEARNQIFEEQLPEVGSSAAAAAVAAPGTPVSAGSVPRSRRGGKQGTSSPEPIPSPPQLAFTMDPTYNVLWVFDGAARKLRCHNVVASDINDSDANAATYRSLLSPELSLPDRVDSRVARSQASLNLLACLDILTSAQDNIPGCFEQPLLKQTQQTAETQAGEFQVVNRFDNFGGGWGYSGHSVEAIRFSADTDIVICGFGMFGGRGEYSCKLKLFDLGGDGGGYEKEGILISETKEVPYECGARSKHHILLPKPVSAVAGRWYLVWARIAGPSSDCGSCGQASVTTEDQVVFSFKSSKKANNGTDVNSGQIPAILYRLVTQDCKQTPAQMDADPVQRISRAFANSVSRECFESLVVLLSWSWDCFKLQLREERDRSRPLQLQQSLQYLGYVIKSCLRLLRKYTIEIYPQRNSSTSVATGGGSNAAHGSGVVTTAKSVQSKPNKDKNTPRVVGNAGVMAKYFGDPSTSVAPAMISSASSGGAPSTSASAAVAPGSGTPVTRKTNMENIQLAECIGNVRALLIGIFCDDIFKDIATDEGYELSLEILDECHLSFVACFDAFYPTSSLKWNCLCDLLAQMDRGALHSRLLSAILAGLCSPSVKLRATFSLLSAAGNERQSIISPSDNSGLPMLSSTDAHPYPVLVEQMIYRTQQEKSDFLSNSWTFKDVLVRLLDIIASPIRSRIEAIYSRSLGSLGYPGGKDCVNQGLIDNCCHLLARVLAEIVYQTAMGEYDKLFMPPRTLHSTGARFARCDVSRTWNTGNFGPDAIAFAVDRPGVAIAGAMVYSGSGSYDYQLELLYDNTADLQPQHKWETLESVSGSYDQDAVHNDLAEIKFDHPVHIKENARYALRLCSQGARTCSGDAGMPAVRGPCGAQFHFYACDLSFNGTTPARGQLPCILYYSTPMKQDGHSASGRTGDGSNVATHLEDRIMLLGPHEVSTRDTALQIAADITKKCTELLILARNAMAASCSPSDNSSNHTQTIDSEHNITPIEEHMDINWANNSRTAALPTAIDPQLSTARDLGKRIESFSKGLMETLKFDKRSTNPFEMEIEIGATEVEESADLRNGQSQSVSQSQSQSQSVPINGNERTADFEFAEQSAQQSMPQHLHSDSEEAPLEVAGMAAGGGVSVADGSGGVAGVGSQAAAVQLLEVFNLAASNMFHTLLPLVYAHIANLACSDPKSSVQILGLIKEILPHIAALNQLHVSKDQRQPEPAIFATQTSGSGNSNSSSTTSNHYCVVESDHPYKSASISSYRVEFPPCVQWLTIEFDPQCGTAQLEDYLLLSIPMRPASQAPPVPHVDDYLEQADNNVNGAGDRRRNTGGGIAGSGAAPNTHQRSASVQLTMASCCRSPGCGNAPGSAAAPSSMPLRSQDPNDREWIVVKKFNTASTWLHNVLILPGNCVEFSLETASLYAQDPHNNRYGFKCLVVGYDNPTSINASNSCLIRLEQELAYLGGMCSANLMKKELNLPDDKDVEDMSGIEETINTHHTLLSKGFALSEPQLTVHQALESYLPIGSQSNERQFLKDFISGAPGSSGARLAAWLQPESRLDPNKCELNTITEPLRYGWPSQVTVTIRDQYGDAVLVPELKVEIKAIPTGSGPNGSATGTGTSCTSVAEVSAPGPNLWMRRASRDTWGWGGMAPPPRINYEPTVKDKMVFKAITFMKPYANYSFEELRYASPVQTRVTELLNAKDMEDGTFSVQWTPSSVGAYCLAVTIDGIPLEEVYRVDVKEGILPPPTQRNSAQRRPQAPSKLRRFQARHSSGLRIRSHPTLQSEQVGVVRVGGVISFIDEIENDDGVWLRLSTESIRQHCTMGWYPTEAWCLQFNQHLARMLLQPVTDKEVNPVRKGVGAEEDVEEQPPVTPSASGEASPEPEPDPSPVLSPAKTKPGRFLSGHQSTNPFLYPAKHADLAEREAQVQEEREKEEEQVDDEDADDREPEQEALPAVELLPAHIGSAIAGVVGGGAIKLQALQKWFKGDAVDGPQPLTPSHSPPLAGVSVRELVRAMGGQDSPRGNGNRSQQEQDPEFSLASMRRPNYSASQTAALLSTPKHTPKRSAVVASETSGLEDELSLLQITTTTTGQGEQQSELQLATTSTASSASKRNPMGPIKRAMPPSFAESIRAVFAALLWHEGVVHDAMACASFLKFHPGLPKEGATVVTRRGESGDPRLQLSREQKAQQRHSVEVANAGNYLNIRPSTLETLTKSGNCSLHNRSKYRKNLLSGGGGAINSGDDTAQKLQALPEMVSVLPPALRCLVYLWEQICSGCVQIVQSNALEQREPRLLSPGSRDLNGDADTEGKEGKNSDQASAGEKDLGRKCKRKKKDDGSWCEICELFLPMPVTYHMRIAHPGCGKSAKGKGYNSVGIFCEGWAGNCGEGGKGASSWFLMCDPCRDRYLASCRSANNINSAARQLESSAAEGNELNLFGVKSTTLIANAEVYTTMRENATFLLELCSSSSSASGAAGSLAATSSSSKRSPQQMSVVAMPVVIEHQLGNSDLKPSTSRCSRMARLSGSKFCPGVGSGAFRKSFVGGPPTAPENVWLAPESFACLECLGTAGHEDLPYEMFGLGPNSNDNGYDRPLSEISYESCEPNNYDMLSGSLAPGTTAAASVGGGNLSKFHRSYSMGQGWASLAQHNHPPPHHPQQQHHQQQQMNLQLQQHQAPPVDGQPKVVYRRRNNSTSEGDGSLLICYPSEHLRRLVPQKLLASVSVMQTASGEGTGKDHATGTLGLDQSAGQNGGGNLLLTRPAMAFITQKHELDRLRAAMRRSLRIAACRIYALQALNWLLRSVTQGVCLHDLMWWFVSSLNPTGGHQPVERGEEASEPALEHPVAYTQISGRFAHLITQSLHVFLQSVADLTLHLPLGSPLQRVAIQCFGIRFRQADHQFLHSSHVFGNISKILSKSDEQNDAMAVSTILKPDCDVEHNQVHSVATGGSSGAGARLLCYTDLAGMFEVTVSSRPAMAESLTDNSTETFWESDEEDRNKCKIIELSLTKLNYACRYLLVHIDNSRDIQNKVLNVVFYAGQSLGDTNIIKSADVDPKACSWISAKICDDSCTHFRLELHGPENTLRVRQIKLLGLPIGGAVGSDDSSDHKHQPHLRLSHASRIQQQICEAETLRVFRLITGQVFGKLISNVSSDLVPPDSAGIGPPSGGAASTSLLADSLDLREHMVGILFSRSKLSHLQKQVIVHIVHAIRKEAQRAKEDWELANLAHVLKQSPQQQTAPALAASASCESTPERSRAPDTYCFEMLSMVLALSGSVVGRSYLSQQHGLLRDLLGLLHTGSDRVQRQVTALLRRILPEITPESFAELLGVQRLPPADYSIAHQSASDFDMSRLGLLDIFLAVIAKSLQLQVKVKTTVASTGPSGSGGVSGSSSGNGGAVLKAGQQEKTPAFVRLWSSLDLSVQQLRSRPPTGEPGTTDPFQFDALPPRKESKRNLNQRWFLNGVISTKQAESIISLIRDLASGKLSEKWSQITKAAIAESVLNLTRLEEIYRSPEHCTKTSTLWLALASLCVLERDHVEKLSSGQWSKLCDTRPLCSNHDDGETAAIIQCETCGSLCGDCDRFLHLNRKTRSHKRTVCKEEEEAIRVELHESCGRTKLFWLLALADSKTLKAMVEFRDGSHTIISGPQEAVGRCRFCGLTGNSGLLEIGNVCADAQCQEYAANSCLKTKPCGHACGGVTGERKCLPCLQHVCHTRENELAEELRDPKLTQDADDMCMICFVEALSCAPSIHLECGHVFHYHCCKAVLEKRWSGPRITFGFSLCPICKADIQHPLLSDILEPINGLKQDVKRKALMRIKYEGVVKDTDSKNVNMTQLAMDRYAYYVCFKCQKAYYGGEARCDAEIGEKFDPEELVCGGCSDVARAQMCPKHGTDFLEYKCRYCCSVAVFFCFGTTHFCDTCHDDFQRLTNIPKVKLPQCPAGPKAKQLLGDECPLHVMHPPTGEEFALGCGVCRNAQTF

T1: His-Myc-tagged DFsn (Drosophila) (UniProt Q9V6L9)
T1 sequence: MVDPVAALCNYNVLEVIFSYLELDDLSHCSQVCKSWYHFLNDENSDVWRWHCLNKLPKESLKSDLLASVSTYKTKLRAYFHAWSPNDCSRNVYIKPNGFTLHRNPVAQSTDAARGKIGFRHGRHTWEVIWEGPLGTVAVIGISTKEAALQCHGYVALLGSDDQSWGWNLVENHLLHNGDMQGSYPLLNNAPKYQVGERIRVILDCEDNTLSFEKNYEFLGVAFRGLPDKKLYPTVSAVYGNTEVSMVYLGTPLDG


Columns and labels:
[1] = target: T1, His-Myc-tagged DFsn (Drosophila); assay: co-IP; third instar larval brain lysate of flies neuronally expressing His-Myc-DFsn; IP with anti-Highwire (HIW2b) or anti-Myc (9E10), protein A beads; lysis buffer Tris-HCl 50 mM pH 7.4, NaCl 150 mM, NP-40 0.2%, NaDOC 0.2%; western blot
[2] = target: Highwire, endogenous (Drosophila (endogenous in larval brains)) (UniProt Q9NB71); assay: as above

Molecule	binding [1]	binding [2]
Highwire, endogenous (from UniProt Q9NB71 1-5233) (enzyme)	binds	
His-Myc-tagged DFsn (protein, UniProt Q9V6L9 1-255) MVDPVAALCNYNVLEVIFSYLELDDLSHCSQVCKSWYHFLNDENSDVWRWHCLNKLPKESLKSDLLASVSTYKTKLRAYFHAWSPNDCSRNVYIKPNGFTLHRNPVAQSTDAARGKIGFRHGRHTWEVIWEGPLGTVAVIGISTKEAALQCHGYVALLGSDDQSWGWNLVENHLLHNGDMQGSYPLLNNAPKYQVGERIRVILDCEDNTLSFEKNYEFLGVAFRGLPDKKLYPTVSAVYGNTEVSMVYLGTPLDG		binds
